Literature values as cited in patent US5594009A, “Fused pyrrolocarbazoles” (priority 1995, dated 1997).

Test system: transcription of IFNα genes
Conditions: not associated with the inhibition of protein kinase C; cited from earlier work

CN[C@@H]1C[C@H]2O[C@@](C)([C@@H]1OC)n1c3ccccc3c3c4c(c5c6ccccc6n2c5c31)C(=O)NC4 [staurosporine]
inhibition of transcription of IFNα genes: inhibit the transcription of IFNα genes
